Values quoted from earlier work as cited in patent publication US5322698A, “Process for the preparation of a tablet or dragee composition containing a heat-, light- and moisture-sensitive active ingredient having monoclinic crystal structure” (priority 1990, dated 1994).

Details: antiarrhythmic reference drugs; Welling et al. 1985; cited from earlier work

Compound: CCCCc1oc2ccccc2c1C(=O)c1cc(I)c(OCCN(CC)CC)c(I)c1 [aminodarone]
- absorption: not absorbed
